Literature values as cited in patent US20240207299A1, “PYRROLOPYRIMIDINE NUCLEOSIDES FOR TREATING OR PREVENTING A SARS-COV-2 INFECTION” (Chimerix, Inc., priority 2021, published 2024).
At least one compound was matched to its structure with a doubt left.

Tested on: SARS-CoV-2
Conditions: Vero cells compared to other cells; cited from earlier work

## CCC(CC)COC(=O)[C@H](C)N[P@](=O)(OC[C@H]1O[C@@](C#N)(c2ccc3c(N)ncnn23)[C@H](O)[C@@H]1O)Oc1ccccc1 [remdesivir]
  potency: much lower
